Laboratory results published in paper PMC12670160, “A drug-repurposing screen of FDA- and EMA-approved drugs identifies two NF-κB inhibitors active against eumycetoma” (Journal of Antimicrobial Chemotherapy, 2025).
Where a name gives a salt, the structure may show the parent alone. About 130 (2.5%) of roughly 5,300 compounds showed an effect of 50% or more. The list shows a part of the results.

What follows are compounds tested on M. mycetomatis strain mm55. Conditions: primary screen, metabolic activity vs growth control; 96 h, 2 µM; inhibitor.

Compound	% viability [%]
Cc1c(Cl)c(C)[n+]([O-])c(Cl)c1-c1noc(-c2cc(O)c(O)c([N+](=O)[O-])c2)n1 [ONC0001007, opicapone]	81.76
CCN(CC)CCNC(=O)c1ccccc1I [ONC0003631, n2diethylaminoethyl2iodobenzamide hydrochloride]	51.76
CC(C)=CCC/C(C)=C/CC/C(C)=C/CSc1ccccc1C(N)=O [ONC0003299, farnesylthiosalicylicacidamide]	80.95
CCCCC(=O)N(Cc1ccc(-c2ccccc2-c2nnn[nH]2)cc1)[C@H](C(=O)O)C(C)C [ONC0004292, valsartan]	83.45
COC(=O)[C@@H](N)CCCNC(=N)N[N+](=O)[O-] [ONC0003037, lname]	84.29
CCN(CC)CCNC(=O)c1cc(Br)c(N)cc1OC [ONC0002898, bromopride]	60.58
CCc1ccc(/C=C2/SC(=S)NC2=O)cc1 [ONC0004460, 10058f4]	118.8
CCOC(N)=O [ONC0003133, urethane]	74.39
Nc1ncccc1-c1nc2ccc(-c3ccccc3)nc2n1-c1ccc(C2(N)CCC2)cc1 [ONC0001390, miransertib]	101.4
O=C(O)C1CN(CCCP(=O)(O)O)CCN1 (stereo not shown) [ONC0001562, cpp]	88.98
O=C1Nc2ccccc2C2(CCN(CCc3ccc(C(F)(F)F)cc3)CC2)O1 [ONC0000109, rs102895]	92.35
O=c1cc(N2CCOCC2)oc2c(-c3ccccc3)cccc12 [ONC0002636, ly294002]	84.16
Cc1cc(C)c(NC(=O)N(Cc2ccc3c(c2)Cc2ccccc2-3)C2CCCCCC2)c(C)c1 [ONC0000194, ym750]	45.17
O=C1c2cccc(O)c2C(=O)c2c(O)cccc21 [ONC0003324, danthron]	56.8
O=c1[nH]c(CCl)nc2sc3c(c12)CCCC3 [ONC0003871, 2chloromethyl5678tetrahydro1benzothieno23dpyrimidin43hone]	86.89
CC(C)NNC(=O)c1ccncc1 [ONC0003822, iproniazid phosphate]	71.6
CNCC(=O)O [ONC0003726, sarcosine]	140.3
O=C1S/C(=C\c2ccc(OCc3cccc(B(O)O)c3)cc2)C(=O)N1Cc1ccc(F)cc1 [ONC0002550, ha130]	76.52
Cc1ccc(Sc2cncc3sc(C(N)=O)cc23)cc1 [ONC0003151, a205804]	78.92
Cc1c(C(=O)Nc2ccc(N3C[C@@H](C)O[C@@H](C)C3)nc2)cccc1-c1ccc(OC(F)(F)F)cc1 [ONC0004913, lde225 nvplde225 erismodegib]	90.24

Compound	% viability [%]
Nc1cc(C(F)(F)F)c(-c2cc(N3CCOCC3)nc(N3CCOCC3)n2)cn1 [ONC0004946, bkm120 nvpbkm120]	113
CC(=O)N=c1sc(S(N)(=O)=O)nn1C [ONC0003108, methazolamide]	67.22
CCCCCN(CCCOC)C(=O)[C@@H](CCC(=O)O)NC(=O)c1ccc(Cl)c(Cl)c1 [ONC0003408, dexloxiglumide]	69.48
Cc1cnc(NC(=O)Nc2cc(Br)c(C)cc2OC[C@@H]2CNCCO2)cn1 [ONC0005090, ly2603618 ic83]	66.5
O=C(O)c1cc(=O)c2ccccc2[nH]1 [ONC0000035, kynurenicacid]	107.8
N[C@H](C(=O)O)c1ccc(C(=O)O)c(O)c1 [ONC0000126, 4carboxy3hydroxyphenylglycines]	82.71
C=C1/C(=C\C=C2/CCC[C@]3(C)[C@@H]([C@H](C)CC[C@@H](O)C(C)C)CC[C@@H]23)C[C@@H](O)C[C@@H]1O [ONC0003445, tacalcitol]	80.23
CCC(CO)(C(=O)OC1CC2CCC(C1)[N+]2(C)C)c1ccccc1 (stereo not shown) [ONC0002616, 32hydroxymethyl2phenylbutanoyloxy88dimethyl8azoniabicyclo321octane iodide]	59.82
CC(CNC(=O)c1cccnc1)NC(=O)c1cccnc1 (stereo not shown) [ONC0004572, nicaraven]	59.54
O=C1C=CC[C@@H]2[C@H]3CCCN4CCC[C@@H](CN12)[C@@H]34 [ONC0003435, sophocarpine]	68.56
O=C(Nc1ccccc1)N1CCN(c2nc(-c3ccccc3)ns2)CC1 [ONC0005025, jnj 1661010]	98.63
O=C(O)C(=O)CBr [ONC0001161, 3bromopyruvic acid]	97.63
CC(C)SC(=N)N [ONC0000298, sisopropylisothiourea]	89.13
O=C(c1ccc(Cl)cc1)N(Cc1ccccc1)C1CCCCC1 [ONC0001245, fpszm1]	58.23
CCCCCCCCCC(=O)OCCN1CCN(CCCN2c3ccccc3Sc3ccc(C(F)(F)F)cc32)CC1 [ONC0003289, fluphenazine decanoate]	48.22
CC(C)OC(=O)[C@H](C)N[P@@](=O)(OC[C@H]1O[C@@H](n2ccc(=O)[nH]c2=O)[C@](C)(F)[C@@H]1O)Oc1ccccc1 [ONC0001857, psi7976]	73.8
CN(c1ncccc1CNc1nc(Nc2ccc3c(c2)CC(=O)N3)ncc1C(F)(F)F)S(C)(=O)=O [ONC0004362, pf00562271]	95.95
Cn1nc(C(C)(C)C)cc1C(=O)N[C@@H](Cc1cccc(Cl)c1)C(=O)NCC#N [ONC0005054, cathepsin inhibitor 1]	77.37
CN(C)CCc1c[nH]c2ccc(CS(=O)(=O)N3CCCC3)cc12 [ONC0004784, almotriptan malate axert]	131.3
CCc1ccc(OCc2ccccc2C(=O)Nc2ccc3nc(C)cc(N)c3c2)cc1 [ONC0003651, jtc801]	82.86

In the list so far, these contain an aryl thioether with sulfur outside any ring:
Compound	% viability [%]
CC(C)=CCC/C(C)=C/CC/C(C)=C/CSc1ccccc1C(N)=O [ONC0003299, farnesylthiosalicylicacidamide]	80.95
Cc1ccc(Sc2cncc3sc(C(N)=O)cc23)cc1 [ONC0003151, a205804]	78.92
